Source: the supplement of paper PMC12823440, “Inhibitors supercharge kinase turnover through native proteolytic circuits” (Nature, 2025)
This is one part of the list. Hit calls seldom repeat between salt and free forms of one compound.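 In K562 cells expressing nanoluciferase-fused kinases, luminescence was recorded at 4 h intervals between 2 and 18 h, normalized as percent of control with DMSO at 100% and a positive control at 0%. A significant (2 sigma) signal drop marks a time point as decreased. The authors' rule for a hit is not shown and takes in more than the number of time points.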

Amino acid sequences for entries named in this document (tags omitted). A change or cut given only in a name is not applied to a line headed by its entry.
UniProt P10398: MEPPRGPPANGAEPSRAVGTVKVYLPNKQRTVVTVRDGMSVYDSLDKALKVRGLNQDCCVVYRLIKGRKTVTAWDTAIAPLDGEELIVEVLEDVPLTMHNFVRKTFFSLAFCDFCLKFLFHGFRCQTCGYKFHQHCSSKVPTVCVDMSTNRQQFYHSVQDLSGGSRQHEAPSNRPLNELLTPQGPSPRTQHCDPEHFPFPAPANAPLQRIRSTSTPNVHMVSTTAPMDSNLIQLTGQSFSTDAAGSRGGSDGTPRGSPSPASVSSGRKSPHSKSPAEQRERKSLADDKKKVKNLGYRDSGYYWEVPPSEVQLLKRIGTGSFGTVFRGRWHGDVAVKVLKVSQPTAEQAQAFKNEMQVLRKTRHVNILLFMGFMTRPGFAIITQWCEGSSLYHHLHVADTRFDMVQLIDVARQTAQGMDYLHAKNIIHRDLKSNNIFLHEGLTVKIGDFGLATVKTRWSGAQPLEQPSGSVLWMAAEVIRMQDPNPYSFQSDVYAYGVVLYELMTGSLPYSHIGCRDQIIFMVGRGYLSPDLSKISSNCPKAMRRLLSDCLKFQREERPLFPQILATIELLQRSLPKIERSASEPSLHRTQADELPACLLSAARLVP
UniProt Q96GD4, whole entry: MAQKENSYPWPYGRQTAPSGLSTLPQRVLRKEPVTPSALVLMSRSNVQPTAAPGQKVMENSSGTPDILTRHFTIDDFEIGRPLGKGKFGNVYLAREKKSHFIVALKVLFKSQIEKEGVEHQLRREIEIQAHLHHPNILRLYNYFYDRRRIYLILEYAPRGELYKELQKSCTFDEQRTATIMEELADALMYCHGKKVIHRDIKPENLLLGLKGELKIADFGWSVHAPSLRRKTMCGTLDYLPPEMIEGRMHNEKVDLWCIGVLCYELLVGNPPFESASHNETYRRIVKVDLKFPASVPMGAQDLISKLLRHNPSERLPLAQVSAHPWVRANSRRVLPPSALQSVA
UniProt Q9UQB9: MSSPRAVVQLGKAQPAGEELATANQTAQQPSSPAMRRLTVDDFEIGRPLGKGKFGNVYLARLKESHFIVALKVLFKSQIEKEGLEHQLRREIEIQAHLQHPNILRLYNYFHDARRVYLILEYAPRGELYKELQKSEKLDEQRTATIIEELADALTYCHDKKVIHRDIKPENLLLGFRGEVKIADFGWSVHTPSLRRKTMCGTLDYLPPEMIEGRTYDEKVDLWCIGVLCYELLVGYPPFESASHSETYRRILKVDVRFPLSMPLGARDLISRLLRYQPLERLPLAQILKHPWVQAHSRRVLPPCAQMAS
UniProt P51451: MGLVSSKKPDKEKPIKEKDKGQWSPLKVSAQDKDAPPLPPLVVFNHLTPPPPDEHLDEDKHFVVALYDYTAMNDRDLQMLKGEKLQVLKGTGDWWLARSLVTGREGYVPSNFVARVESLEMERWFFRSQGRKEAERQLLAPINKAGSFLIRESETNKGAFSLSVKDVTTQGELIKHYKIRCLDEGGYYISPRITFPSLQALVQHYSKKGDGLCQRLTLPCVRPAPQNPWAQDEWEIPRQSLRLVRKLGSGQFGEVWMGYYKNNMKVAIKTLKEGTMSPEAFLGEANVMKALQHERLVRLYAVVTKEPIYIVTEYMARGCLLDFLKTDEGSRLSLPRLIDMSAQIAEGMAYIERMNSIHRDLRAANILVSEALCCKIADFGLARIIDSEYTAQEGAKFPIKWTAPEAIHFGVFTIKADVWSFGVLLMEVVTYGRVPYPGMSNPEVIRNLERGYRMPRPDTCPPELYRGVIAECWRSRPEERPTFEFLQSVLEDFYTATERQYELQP
UniProt P51813: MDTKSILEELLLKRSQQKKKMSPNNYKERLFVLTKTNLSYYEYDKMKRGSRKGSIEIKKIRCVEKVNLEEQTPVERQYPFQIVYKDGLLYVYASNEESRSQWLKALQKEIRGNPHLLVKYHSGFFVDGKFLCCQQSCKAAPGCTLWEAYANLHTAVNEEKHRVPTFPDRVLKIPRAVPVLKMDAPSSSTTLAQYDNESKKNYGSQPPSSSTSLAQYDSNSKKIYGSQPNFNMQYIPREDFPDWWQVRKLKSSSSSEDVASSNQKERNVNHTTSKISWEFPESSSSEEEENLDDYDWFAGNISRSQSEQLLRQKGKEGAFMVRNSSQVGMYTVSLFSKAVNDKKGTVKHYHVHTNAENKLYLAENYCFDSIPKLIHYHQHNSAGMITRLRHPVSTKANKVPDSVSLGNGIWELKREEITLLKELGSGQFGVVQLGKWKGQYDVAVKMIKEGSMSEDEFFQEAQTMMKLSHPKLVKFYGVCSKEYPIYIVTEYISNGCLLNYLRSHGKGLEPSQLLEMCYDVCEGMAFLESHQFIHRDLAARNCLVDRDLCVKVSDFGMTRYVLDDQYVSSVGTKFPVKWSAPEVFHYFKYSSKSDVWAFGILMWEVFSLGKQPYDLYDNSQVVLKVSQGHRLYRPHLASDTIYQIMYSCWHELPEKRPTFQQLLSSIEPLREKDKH
UniProt P15056, whole entry, looked up: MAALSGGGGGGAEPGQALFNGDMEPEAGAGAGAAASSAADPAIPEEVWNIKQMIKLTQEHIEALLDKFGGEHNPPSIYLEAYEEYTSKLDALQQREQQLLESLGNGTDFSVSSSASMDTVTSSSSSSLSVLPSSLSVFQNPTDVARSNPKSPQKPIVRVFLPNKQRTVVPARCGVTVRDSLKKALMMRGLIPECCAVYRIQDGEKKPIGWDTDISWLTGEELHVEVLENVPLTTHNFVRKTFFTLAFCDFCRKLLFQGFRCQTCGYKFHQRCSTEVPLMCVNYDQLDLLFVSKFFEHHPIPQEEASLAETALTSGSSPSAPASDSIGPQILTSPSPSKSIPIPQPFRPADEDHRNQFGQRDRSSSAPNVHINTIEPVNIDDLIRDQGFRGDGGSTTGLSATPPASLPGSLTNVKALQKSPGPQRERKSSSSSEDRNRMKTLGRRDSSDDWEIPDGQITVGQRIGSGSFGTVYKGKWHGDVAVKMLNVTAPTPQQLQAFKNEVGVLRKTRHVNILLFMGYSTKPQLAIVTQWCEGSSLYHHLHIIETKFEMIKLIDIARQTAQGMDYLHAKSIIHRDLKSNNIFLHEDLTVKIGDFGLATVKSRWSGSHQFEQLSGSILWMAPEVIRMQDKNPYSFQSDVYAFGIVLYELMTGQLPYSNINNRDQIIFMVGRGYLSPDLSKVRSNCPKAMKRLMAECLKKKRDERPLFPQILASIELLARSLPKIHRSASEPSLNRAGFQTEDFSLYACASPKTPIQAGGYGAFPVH
UniProt Q06187: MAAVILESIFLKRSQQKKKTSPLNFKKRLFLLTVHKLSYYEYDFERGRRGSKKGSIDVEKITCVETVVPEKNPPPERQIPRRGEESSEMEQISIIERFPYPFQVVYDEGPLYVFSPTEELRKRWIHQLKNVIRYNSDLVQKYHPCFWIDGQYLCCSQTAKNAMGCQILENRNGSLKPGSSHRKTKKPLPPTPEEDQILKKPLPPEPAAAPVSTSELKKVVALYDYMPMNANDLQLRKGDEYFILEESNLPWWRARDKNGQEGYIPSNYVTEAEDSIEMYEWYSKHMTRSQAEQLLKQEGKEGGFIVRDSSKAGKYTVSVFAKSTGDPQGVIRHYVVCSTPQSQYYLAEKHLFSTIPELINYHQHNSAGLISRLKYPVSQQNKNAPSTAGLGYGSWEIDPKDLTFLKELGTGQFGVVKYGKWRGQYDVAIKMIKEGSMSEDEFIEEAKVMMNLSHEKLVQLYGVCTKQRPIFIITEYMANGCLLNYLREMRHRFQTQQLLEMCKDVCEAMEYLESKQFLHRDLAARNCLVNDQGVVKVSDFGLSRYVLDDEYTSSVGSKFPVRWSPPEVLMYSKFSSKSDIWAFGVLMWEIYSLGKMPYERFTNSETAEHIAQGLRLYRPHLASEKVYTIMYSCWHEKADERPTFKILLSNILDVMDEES
UniProt Q13555: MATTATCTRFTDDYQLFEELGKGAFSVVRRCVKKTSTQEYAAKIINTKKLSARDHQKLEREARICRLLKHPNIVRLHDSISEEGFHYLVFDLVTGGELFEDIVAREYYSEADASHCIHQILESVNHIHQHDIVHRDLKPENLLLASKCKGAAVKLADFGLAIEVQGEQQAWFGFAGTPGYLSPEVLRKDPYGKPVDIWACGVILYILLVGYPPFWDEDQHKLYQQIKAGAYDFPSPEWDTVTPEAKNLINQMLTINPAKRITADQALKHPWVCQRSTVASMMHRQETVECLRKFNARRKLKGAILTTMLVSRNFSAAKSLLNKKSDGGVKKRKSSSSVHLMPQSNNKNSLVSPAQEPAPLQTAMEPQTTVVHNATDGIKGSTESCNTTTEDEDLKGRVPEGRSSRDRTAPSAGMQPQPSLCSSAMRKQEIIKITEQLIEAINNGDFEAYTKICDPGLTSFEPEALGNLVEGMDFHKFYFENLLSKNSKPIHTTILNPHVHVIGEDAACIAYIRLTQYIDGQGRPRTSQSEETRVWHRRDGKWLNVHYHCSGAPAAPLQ
UniProt Q15131: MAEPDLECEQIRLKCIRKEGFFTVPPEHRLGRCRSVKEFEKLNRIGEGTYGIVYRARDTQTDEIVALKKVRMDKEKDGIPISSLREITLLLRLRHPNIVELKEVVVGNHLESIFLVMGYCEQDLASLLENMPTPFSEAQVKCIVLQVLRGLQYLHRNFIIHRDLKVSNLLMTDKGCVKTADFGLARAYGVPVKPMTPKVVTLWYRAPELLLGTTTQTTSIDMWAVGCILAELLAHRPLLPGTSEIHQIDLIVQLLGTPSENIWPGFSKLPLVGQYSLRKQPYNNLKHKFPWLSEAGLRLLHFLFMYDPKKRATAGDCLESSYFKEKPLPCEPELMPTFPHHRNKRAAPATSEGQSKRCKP
UniProt Q00535, whole entry, looked up: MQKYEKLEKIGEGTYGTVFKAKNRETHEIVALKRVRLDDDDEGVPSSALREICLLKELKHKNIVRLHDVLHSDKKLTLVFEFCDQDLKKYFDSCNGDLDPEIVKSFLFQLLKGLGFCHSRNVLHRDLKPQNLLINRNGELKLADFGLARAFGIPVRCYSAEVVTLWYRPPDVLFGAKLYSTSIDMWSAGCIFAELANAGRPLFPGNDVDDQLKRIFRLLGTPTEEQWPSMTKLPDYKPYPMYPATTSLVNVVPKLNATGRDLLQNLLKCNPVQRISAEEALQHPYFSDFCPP
UniProt Q00534, whole entry: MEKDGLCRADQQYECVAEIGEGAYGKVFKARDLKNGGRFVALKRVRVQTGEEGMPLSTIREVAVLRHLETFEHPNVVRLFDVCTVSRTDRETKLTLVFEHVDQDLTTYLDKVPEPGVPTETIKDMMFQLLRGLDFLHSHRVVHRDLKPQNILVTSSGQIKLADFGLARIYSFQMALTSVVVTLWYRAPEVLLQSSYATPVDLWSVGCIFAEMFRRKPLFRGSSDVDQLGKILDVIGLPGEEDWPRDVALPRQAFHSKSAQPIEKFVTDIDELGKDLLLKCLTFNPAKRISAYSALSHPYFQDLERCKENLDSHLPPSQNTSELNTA
UniProt O96017, whole entry: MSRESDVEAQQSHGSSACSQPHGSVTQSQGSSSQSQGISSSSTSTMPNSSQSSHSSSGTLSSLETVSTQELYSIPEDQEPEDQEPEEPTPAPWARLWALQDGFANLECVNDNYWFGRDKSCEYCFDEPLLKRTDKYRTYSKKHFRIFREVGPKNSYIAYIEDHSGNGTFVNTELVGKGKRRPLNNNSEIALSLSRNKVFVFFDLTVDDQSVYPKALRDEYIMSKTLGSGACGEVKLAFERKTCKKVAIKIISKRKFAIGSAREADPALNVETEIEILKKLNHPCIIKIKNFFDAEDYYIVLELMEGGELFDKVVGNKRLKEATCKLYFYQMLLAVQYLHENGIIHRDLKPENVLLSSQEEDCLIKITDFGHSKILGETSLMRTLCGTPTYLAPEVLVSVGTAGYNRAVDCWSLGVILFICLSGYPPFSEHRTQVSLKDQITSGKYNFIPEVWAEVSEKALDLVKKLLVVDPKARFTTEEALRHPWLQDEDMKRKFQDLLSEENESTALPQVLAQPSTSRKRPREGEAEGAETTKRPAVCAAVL
UniProt P41240: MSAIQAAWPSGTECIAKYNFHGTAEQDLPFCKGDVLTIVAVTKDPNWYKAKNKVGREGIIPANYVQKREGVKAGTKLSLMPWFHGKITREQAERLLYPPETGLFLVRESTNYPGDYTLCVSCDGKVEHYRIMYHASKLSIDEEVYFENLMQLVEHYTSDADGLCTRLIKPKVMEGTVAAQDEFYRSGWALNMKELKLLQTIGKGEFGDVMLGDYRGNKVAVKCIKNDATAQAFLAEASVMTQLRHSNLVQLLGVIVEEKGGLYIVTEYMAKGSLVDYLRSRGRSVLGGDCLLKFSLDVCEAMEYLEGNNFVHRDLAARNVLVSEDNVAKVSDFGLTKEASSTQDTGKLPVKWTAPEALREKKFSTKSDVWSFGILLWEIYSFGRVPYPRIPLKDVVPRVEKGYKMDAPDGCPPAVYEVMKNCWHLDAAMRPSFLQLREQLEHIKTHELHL

Tests used:
Assay in all cases: number of time points (of 5) at which kinase-Nluc abundance scored as decreased, DMSO-normalised (count); higher = more persistent destabilization
Conditions in all cases: K562; 2-18 h
ALK = ALK (UniProt Q9UM73)
ARAF = ARAF (UniProt P10398)
AURKA = AURKA (UniProt O14965)
AURKB = AURKB (UniProt Q96GD4)
AURKC = AURKC (UniProt Q9UQB9)
BLK = BLK (UniProt P51451)
BMX = BMX (UniProt P51813)
BRAF = BRAF (UniProt P15056)
BRAF_V600E = system: BRAF_V600E
BTK = BTK (UniProt Q06187)
CAMK2A = CAMK2A (UniProt Q9UQM7)
CAMK2G = CAMK2G (UniProt Q13555)
CDK10 = CDK10 (UniProt Q15131)
CDK2 = CDK2 (UniProt P24941)
CDK3 = CDK3 (UniProt Q00526)
CDK5 = CDK5 (UniProt Q00535)
CDK6 = CDK6 (UniProt Q00534)
CHEK2 = CHEK2 (UniProt O96017)
CSF1R = CSF1R (UniProt P07333)
CSK = CSK (UniProt P41240)

Measured: number of time points

C[C@@H]1CN(Cc2cn[nH]c2-c2ccc(C#N)cc2)CCN1c1ccc(C(F)(F)F)cn1 (2.5 µM)
0: all assays above

CCOC(=O)C1=C[C@]2(CC)CCCN3CCc4c(n1c1ccccc41)[C@@H]32 [Vinpocetine] (10 µM)
0: all assays above

CNS(=O)(=O)Nc1nccc(Cc2c(C)c3ccc(Oc4ncccn4)cc3oc2=O)c1F (10 µM)
1: ALK | AURKA | BRAF_V600E | CHEK2 | CSF1R
0: all other assays above

CCOc1cc(C(=O)N2CCC(N3CCN(C)CC3)CC2)ccc1Nc1ncc2c(n1)N(S(C)(=O)=O)c1ccccc1C(=O)N2C (10 µM)
0: all assays above

O=c1sn(-c2cccc3ccccc23)c(=O)n1Cc1ccccc1 [Tideglusib] (10 µM)
0: all assays above

NC(=O)c1cccc2c(N[C@H](CN3CCC3)c3ccc(Cl)c(C(F)(F)F)c3)ncnc12 (10 µM)
0: all assays above

O=C(Nc1cc(Cl)cc(Cl)c1)Nc1cc(Cl)cc(Cl)c1 (10 µM)
0: all assays above

COc1cc2nccc(Oc3ccc(NC(=O)Nc4ccc(F)cc4F)c(F)c3)c2cc1OC (10 µM)
2: CAMK2G
4: BRAF
1: BMX
3: CDK6 | CSF1R
0: all other assays above

N#Cc1c[nH]c2ccc(-c3ccc(-c4c(O)cccc4O)cc3)cc12 (10 µM)
0: all assays above

CCS(=O)(=O)c1ccc(Oc2cc(O[C@@H](C)CO)cc(C(=O)Nc3ccn(C)n3)c2)cn1 (10 µM)
0: all assays above

N#Cc1cn([C@@H]2O[C@H](CO)[C@@H](O)[C@H]2O)c2nc[nH]c(=O)c12 [Jaspamycin] (10 µM)
0: all assays above

COc1ccc2c(c1)C[C@H](C(=O)Nc1ccc(-c3cn[nH]c3)cc1OCCN(C)C)CO2 [Chroman 1] (10 µM)
0: all assays above
